Values from PubChem BioAssay AID1224828 (NIAID, 2016)

Purpose: 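Find genes required for NF-kappaB p65 moving into the nucleus after LPS in mouse macrophages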 (primary screen)
Cell system: mouse RAW264.7 G9 macrophage reporter cells (GFP-p65, Tnf promoter-mCherry)
Reagents: siRNA pool against mouse genes, 100 nM
Timing: 2 days siRNA transfection, then 40 min LPS before fixation
Treatment: LPS (Salmonella minnesota R595) at 10 ng/ml
Read-out: 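Microscopy ratio of nuclear to perinuclear-ring GFP-p65 signal, scaled to the plate median; gene score is the average of two replicate robust z-scores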
Direction: p65 translocation robust z-score: higher = more nuclear NF-kappaB p65 after LPS than the plate median; nuclear/cytoplasmic p65 ratio: higher = more nuclear NF-kappaB p65
Active means: 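Called active when z exceeds 3.3 or falls under -1.56 (median of Tlr4 controls), giving activity score of at least 50; no calls for control wells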
Meaning of the calls: active = hit (p65 shift raised or lowered); inactive = no clear change
Here is an unselected part of about 17,000 reagents tested. In the full data, 762 (4.5%) are marked active. 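Active calls include both raised and lowered p65 entry, mostly lowered; wells with fewer than 50 cells lack a z-score.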 The raw values are shown without normalisation. A reagent listed more than once was tested more than once; the source does not tell the runs apart.

target | p65 translocation robust z-score | nuclear/cytoplasmic p65 ratio, rep 1 | nuclear/cytoplasmic p65 ratio, rep 2 | low cell count flag | Call
Zfp932 (zinc finger protein 932) | – | 1.19 | 0.827 | fewer than 50 cells per well; well left out of scoring | inactive
Slc26a6 | – | 1.2 | 1.29 | fewer than 50 cells per well; well left out of scoring | inactive
Smarcd2 (SWI/SNF related BAF chromatin remodeling complex subunit D2) | 0.26 | 1.57 | 1.61 | enough cells to score | inactive
Pigf (phosphatidylinositol glycan anchor biosynthesis, class F) | -0.92 | 1.3 | 1.15 | enough cells to score | inactive
Or5p53 (olfactory receptor family 5 subfamily P member 53) | 0.17 | 1.44 | 1.31 | enough cells to score | inactive
Pom121 (nuclear pore membrane protein 121) | -0.59 | 1.28 | 1.17 | enough cells to score | inactive
Mtag2 (metastasis associated gene 2) | -0.3 | 1.87 | 1.33 | enough cells to score | inactive
Dram2 (DNA-damage regulated autophagy modulator 2) | 0.48 | 1.51 | 1.48 | enough cells to score | inactive
Diablo (diablo, IAP-binding mitochondrial protein) | 1.56 | 1.74 | 1.53 | enough cells to score | inactive
Tubg2 (tubulin, gamma 2) | -0.27 | 1.47 | 1.47 | enough cells to score | inactive
Samtor (S-adenosylmethionine sensor upstream of mTORC1) | 1.91 | 1.83 | 2.2 | enough cells to score | inactive
Slc39a8 | – | 1.77 | 1.14 | fewer than 50 cells per well; well left out of scoring | inactive
Epcam (epithelial cell adhesion molecule) | 0.59 | 1.58 | 1.63 | enough cells to score | inactive
Slc27a2 | 0.44 | 1.6 | 1.56 | enough cells to score | inactive
Cldn14 (claudin 14) | 0.78 | 1.65 | 1.41 | enough cells to score | inactive
Rnf41 (ring finger protein 41) | 0.06 | 1.42 | 1.23 | enough cells to score | inactive
1700082M22Rik (RIKEN cDNA 1700082M22 gene) | – | 1.43 | 1.47 | fewer than 50 cells per well; well left out of scoring | inactive
Echs1 (enoyl Coenzyme A hydratase, short chain, 1, mitochondrial) | -0.23 | 1.46 | 1.32 | enough cells to score | inactive
Oacyl (O-acyltransferase like) | -0.04 | 1.22 | 1.46 | enough cells to score | inactive
Vezf1 (vascular endothelial zinc finger 1) | -0.72 | 1.62 | 1.2 | enough cells to score | inactive
Tmcc3 (transmembrane and coiled coil domains 3) | 0.78 | 1.64 | 1.99 | enough cells to score | inactive
Or2ak6 (olfactory receptor family 2 subfamily AK member 6) | 0.51 | 1.74 | 1.44 | enough cells to score | inactive
Or5b116 (olfactory receptor family 5 subfamily B member 116) | 1.62 | 1.91 | 1.58 | enough cells to score | inactive
Atp1a1 (ATPase, Na+/K+ transporting, alpha 1 polypeptide) | 2.25 | 1.91 | 1.85 | enough cells to score | inactive
Cyp51 (cytochrome P450, family 51) | -0.75 | 1.45 | 1.68 | enough cells to score | inactive
Sva (seminal vesicle antigen) | 1.81 | 1.69 | 1.43 | enough cells to score | inactive
Zfp653 (zinc finger protein 653) | – | 1.24 | 1.23 | fewer than 50 cells per well; well left out of scoring | inactive
Gpr135 (G protein-coupled receptor 135) | 0.52 | 1.56 | 1.39 | enough cells to score | inactive
Tdo2 (tryptophan 2,3-dioxygenase) | – | 1.34 | 0.986 | fewer than 50 cells per well; well left out of scoring | inactive
Ppp1r10 (protein phosphatase 1, regulatory subunit 10) | -1.38 | 1.28 | 1.25 | enough cells to score | inactive
Agtr2 (angiotensin II receptor, type 2) | -0.67 | 1.57 | 1.31 | enough cells to score | inactive
Agtr2 (angiotensin II receptor, type 2) | -0.08 | 1.51 | 1.55 | enough cells to score | inactive
Naa35 (N(alpha)-acetyltransferase 35, NatC auxiliary subunit) | 1.59 | 2.03 | 1.72 | enough cells to score | inactive
Osgin2 (oxidative stress induced growth inhibitor family member 2) | -0.73 | 1.44 | 1.76 | enough cells to score | inactive
Klra16 (killer cell lectin-like receptor, subfamily A, member 16) | 0.01 | 1.48 | 1.38 | enough cells to score | inactive
Mrpl12 (mitochondrial ribosomal protein L12) | -1.18 | 1.67 | 1.35 | enough cells to score | inactive
R3hdm2 (R3H domain containing 2) | -1.56 | 1.28 | 1.28 | enough cells to score | inactive
Echdc1 (enoyl Coenzyme A hydratase domain containing 1) | -0.92 | 1.38 | 1.21 | enough cells to score | inactive
Kash5 (KASH domain containing 5) | -2.38 | 1.39 | 1.16 | enough cells to score | active
Asl (argininosuccinate lyase) | 1.01 | 1.75 | 1.78 | enough cells to score | inactive
Afp (alpha fetoprotein) | 0.05 | 1.62 | 1.64 | enough cells to score | inactive
Nlgn1 (neuroligin 1) | -0.39 | 1.63 | 1.5 | enough cells to score | inactive
Ptger2 (prostaglandin E receptor 2 (subtype EP2)) | -0.3 | 1.45 | 1.57 | enough cells to score | inactive
Wnt2b (wingless-type MMTV integration siteWNT) | -0.19 | 1.55 | 1.62 | enough cells to score | inactive
Lrtm1 (leucine-rich repeats and transmembrane domains 1) | – | 1.2 | 1.42 | fewer than 50 cells per well; well left out of scoring | inactive
Flii (flightless I actin binding protein) | -2.32 | 1.27 | 1.13 | enough cells to score | active
Stard6 (StAR related lipid transfer domain containing 6) | 0.07 | 1.46 | 1.21 | enough cells to score | inactive
Myod1 (myogenic differentiation 1) | 0.24 | 1.48 | 1.37 | enough cells to score | inactive
Dock7 (dedicator of cytokinesis 7) | – | 1.26 | 1.24 | fewer than 50 cells per well; well left out of scoring | inactive
Aida (axin interactor, dorsalization associated) | – | 1.26 | 1.21 | fewer than 50 cells per well; well left out of scoring | inactive
Poldip3 (polymerase (DNA-directed), delta interacting protein 3) | -0.72 | 1.29 | 1.13 | enough cells to score | inactive
Usf2 (upstream transcription factor 2) | -0.46 | 1.5 | 1.39 | enough cells to score | inactive
Map1s (microtubule-associated protein 1S) | 2.72 | 1.42 | 1.83 | enough cells to score | inactive
Cetn2 (centrin 2) | -0.18 | 1.56 | 1.76 | enough cells to score | inactive
Gprasp1 (G protein-coupled receptor associated sorting protein 1) | – | 1.6 | 2.84 | fewer than 50 cells per well; well left out of scoring | inactive
Mipep (mitochondrial intermediate peptidase) | 2.16 | 1.76 | 1.59 | enough cells to score | inactive
Tle1 (transducin-like enhancer of split 1) | -0.21 | 1.44 | 1.54 | enough cells to score | inactive
Mycbp (MYC binding protein) | -0.51 | 1.76 | 1.47 | enough cells to score | inactive
Pim2 (Pim2, proto-oncogene, serine/threonine kinase) | -0.2 | 1.64 | 1.37 | enough cells to score | inactive
